Measured values from the supplement of paper PMC10032668.
This is one part of the list. The list holds hits alone, and they repeat only in part.

Chains of the proteins cited; added tags and fusions are not shown.
FLNA, P21333, UniProt P21333, whole entry: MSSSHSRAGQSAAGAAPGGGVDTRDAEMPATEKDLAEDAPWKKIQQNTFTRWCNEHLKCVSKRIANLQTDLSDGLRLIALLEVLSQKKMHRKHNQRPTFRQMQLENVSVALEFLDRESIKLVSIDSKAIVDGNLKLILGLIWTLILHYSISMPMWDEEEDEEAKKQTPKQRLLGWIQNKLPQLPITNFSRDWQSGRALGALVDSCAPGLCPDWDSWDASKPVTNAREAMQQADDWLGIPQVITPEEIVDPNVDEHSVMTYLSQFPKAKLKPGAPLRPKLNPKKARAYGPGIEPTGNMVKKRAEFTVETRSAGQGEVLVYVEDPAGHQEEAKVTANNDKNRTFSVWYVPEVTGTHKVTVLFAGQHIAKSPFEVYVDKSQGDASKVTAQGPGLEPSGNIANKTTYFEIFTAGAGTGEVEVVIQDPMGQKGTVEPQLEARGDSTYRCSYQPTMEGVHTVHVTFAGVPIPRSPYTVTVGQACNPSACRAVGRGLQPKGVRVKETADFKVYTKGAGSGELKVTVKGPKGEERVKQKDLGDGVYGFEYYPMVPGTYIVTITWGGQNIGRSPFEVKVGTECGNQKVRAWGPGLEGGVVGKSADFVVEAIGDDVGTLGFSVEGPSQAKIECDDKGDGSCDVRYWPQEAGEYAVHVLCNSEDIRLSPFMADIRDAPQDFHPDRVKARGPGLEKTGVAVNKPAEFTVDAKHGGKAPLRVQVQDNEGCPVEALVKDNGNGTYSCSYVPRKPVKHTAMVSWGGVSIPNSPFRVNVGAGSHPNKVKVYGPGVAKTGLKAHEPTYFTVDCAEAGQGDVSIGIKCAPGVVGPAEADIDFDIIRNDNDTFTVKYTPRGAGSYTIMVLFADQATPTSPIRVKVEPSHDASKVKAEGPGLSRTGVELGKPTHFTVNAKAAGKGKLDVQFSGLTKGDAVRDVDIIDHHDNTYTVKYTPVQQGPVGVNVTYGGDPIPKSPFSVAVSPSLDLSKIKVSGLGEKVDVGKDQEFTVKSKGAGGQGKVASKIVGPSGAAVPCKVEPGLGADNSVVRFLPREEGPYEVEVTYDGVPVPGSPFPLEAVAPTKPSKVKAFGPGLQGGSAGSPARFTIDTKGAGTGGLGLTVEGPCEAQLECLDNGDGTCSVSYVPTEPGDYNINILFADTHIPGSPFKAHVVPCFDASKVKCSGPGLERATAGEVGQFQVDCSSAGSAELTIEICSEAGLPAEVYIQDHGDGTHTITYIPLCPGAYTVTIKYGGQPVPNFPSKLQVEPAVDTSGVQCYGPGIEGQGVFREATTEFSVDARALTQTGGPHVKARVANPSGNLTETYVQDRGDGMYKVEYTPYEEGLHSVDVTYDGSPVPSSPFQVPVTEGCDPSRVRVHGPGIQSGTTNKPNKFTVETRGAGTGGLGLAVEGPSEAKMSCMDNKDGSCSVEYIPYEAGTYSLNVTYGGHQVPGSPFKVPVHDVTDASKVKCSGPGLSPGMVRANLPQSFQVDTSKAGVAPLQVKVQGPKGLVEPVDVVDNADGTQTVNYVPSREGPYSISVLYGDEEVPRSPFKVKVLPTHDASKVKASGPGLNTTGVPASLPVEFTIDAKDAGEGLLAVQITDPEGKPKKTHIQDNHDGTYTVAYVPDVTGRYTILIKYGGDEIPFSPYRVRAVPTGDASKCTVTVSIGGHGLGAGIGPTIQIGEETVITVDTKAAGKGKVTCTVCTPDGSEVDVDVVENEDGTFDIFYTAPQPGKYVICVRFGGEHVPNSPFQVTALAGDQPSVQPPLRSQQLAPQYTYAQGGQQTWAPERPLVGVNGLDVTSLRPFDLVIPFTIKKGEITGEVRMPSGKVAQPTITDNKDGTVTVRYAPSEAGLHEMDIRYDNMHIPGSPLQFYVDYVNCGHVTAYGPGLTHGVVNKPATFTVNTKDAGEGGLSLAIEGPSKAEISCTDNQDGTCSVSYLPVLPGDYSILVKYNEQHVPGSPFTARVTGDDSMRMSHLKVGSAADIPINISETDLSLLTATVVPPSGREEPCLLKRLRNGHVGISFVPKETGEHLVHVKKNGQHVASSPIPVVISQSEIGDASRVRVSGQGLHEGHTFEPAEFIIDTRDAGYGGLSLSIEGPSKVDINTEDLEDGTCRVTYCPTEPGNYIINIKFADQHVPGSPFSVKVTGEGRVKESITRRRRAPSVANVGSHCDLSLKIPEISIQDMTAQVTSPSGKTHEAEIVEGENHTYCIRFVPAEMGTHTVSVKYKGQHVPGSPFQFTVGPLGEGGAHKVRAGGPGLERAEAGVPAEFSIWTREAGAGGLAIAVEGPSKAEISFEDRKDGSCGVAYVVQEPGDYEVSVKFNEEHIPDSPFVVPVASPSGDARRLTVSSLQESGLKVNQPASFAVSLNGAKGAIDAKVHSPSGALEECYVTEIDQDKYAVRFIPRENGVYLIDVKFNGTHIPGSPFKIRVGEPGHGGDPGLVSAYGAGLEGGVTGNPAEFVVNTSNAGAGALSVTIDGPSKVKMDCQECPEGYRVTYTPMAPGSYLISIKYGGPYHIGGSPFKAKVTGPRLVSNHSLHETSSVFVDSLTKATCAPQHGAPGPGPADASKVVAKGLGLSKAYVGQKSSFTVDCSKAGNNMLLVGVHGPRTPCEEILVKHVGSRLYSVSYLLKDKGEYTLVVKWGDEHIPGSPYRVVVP
SMARCA5, O60264, UniProt O60264, whole entry: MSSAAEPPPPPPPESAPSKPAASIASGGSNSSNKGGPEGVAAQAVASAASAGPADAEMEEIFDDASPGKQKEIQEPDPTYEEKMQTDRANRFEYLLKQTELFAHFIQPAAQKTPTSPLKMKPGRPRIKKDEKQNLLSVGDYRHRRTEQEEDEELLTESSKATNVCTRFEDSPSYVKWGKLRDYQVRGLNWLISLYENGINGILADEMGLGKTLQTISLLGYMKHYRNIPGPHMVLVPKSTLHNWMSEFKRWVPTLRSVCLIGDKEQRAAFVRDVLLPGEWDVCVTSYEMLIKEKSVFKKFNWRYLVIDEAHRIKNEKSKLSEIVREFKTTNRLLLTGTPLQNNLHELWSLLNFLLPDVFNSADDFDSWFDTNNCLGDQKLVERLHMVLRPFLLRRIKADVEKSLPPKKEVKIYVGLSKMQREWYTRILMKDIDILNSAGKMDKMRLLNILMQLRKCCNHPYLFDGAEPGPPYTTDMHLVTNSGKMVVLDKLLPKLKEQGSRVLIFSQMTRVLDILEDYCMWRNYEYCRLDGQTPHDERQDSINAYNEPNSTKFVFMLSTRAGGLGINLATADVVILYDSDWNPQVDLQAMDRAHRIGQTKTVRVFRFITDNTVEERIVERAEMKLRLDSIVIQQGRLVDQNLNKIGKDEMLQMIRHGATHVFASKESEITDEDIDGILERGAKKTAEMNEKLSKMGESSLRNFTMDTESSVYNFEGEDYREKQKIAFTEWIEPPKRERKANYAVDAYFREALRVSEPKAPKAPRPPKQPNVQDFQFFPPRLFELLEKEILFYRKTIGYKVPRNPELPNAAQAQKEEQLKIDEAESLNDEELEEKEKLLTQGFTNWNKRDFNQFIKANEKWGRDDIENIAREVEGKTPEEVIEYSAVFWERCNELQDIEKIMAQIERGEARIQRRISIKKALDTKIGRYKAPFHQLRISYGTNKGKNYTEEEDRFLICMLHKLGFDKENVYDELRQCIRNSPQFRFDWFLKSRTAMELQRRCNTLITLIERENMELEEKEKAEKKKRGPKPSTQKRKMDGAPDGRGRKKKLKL
ANAPC7, Q9UJX3, UniProt Q9UJX3, whole entry: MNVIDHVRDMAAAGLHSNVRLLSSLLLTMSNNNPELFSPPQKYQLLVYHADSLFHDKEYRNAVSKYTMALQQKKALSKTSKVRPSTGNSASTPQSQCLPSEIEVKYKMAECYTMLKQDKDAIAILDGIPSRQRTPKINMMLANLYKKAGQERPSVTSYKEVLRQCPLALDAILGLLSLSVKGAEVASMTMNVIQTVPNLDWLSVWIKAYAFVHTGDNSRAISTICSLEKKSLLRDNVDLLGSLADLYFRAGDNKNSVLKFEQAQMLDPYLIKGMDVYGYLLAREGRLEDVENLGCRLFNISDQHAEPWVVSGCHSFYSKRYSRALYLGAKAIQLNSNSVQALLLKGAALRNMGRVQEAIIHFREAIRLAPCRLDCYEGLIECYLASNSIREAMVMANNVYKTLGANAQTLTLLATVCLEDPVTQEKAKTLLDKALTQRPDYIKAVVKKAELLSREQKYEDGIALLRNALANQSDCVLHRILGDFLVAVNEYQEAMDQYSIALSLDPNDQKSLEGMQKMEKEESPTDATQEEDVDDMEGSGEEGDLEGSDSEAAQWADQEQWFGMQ
CAPZB, P47756, UniProt P47756, whole entry: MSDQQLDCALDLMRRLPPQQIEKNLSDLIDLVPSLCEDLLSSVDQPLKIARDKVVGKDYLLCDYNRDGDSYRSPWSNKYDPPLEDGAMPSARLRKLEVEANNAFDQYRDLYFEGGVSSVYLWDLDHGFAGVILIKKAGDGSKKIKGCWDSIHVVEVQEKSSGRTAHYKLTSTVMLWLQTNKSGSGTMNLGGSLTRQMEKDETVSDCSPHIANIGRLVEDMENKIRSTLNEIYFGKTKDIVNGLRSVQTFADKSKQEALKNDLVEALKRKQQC
MAGOHB, Q96A72, UniProt Q96A72, whole entry: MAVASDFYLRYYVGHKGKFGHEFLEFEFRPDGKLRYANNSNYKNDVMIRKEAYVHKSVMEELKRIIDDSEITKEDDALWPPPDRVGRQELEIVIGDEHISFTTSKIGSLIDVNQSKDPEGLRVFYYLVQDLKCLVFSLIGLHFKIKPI
U2AF2, P26368, UniProt P26368, whole entry: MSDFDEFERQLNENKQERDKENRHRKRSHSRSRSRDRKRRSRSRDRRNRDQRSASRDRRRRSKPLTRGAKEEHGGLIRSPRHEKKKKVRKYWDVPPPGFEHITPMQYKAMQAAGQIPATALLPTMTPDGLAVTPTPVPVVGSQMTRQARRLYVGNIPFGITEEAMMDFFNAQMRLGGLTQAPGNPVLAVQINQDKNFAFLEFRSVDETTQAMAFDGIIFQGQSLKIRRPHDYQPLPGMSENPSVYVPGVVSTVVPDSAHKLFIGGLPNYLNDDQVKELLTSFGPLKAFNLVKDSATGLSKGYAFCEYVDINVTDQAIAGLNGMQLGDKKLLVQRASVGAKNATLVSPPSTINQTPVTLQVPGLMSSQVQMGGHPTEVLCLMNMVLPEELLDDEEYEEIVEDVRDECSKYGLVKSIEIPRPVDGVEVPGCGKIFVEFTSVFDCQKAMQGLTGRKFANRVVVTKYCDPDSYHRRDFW
SNRPD3, P62318, UniProt P62318, whole entry: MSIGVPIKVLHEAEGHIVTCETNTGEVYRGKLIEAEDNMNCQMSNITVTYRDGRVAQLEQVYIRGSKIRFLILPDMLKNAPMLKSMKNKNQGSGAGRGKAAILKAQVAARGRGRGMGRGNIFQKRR

Columns and labels:
Test in all cases: PRISMA enrichment of interactor (LFQ) in peptide spot vs all other peptide spots (log2 fold change); higher = stronger / more specific binding of the interactor to the peptide
[1] = target: ANKRD17, O75179
Description: (§1)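 PRISMA: 15-aa overlapping tiles (offset 8 aa) of 60 microproteins, plus SOS1/GLUT1 control peptides, were spot-synthesized on cellulose membranes in triplicate. Membranes were incubated with benzonase-treated HEK293T lysate, and bound proteins were identified by LC-MS/MS with LFQ. Enrichment is the log2 fold change of each protein in one spot versus all other spots. Only interactors passing the significance cutoff are listed.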

[2] = target: ATP5PB, P24539
Description: as §1

[3] = target: ATXN2L, Q8WWM7
Description: as §1

[4] = target: BOP1, Q14137
Description: as §1

[5] = target: CCDC86, Q9H6F5
Description: as §1

[6] = target: CEP290, O15078
Description: as §1

[7] = target: DCAF1, Q9Y4B6
Description: as §1

[8] = target: DDX42, Q86XP3
Description: as §1

[9] = target: ECH1, Q13011
Description: as §1

[10] = target: EIF5B, O60841
Description: as §1

[11] = target: FLNA, P21333
Description: as §1

[12] = target: GART, P22102
Description: as §1

[13] = target: GTF2E2, P29084
Description: as §1

[14] = target: HYOU1, Q9Y4L1
Description: as §1

[15] = target: KARS, Q15046
Description: as §1

[16] = target: LARS2, Q15031
Description: as §1

[17] = target: NOL12, Q9UGY1
Description: as §1

[18] = target: NTPCR, Q9BSD7
Description: as §1

[19] = target: NUP43, Q8NFH3
Description: as §1

[20] = target: ORC6, Q9Y5N6
Description: as §1

[21] = target: PCGF6, Q9BYE7
Description: as §1

[22] = target: PDXDC1, Q6P996
Description: as §1

[23] = target: PSMB6, P28072
Description: as §1

[24] = target: RRP7A, Q9Y3A4
Description: as §1

[25] = target: SMARCA5, O60264
Description: as §1

[26] = target: SRPRB, Q9Y5M8
Description: as §1

[27] = target: TIMM8B, Q9Y5J9
Description: as §1

[28] = target: TMEM214, Q6NUQ4
Description: as §1

[29] = target: TMEM263, Q8WUH6
Description: as §1

[30] = target: TRIM26, Q12899
Description: as §1

[31] = target: UBIAD1, Q9Y5Z9
Description: as §1

[32] = target: ANAPC7, Q9UJX3
Description: as §1

[33] = target: CAPZB, P47756
Description: as §1

[34] = target: CDCA7L, Q96GN5
Description: as §1

[35] = target: CPS1, P31327
Description: as §1

[36] = target: MAGOHB, Q96A72
Description: as §1

[37] = target: MRPL9, Q9BYD2
Description: as §1

[38] = target: NME1-NME2
Description: as §1

[39] = target: PRDX4, Q13162
Description: as §1

[40] = target: RPP30, P78346
Description: as §1

[41] = target: TAF15, Q92804
Description: as §1

[42] = target: TIMM8A, O60220
Description: as §1

[43] = target: TRMU, O75648
Description: as §1

[44] = target: U2AF2, P26368
Description: as §1

[45] = target: WRNIP1, Q96S55
Description: as §1

[46] = target: CCDC88A, Q3V6T2
Description: as §1

[47] = target: COPS2, P61201
Description: as §1

[48] = substrate: CS, O75390
Description: as §1

[49] = target: HERC2, O95714
Description: as §1

[50] = target: MRFAP1, Q9Y605
Description: as §1

[51] = target: PAFAH1B3, Q15102
Description: as §1

[52] = target: RCL1, Q9Y2P8
Description: as §1

[53] = target: SLC25A4, P12235
Description: as §1

[54] = target: SNRPD3, P62318
Description: as §1

[55] = target: TMEM177, Q53S58
Description: as §1

[56] = target: ZNF275, Q9NSD4
Description: as §1

For LQDKLAATQKKLDLA [MTLN], the “PRISMA enrichment of interactor (log2)” value [1] was 4.48, the “PRISMA enrichment of interactor (log2)” value [2] was 5.59 and the “PRISMA enrichment of interactor (log2)” value [3] was 5.36. The “PRISMA enrichment of interactor (log2)” value [4] was 4.41, the “PRISMA enrichment of interactor (log2)” value [5] was 5.99 and the “PRISMA enrichment of interactor (log2)” value [6] was 5.11. For the same binder, the “PRISMA enrichment of interactor (log2)” value [7] was 5.39, the “PRISMA enrichment of interactor (log2)” value [8] was 6.65 and the “PRISMA enrichment of interactor (log2)” value [9] was 5.46. The “PRISMA enrichment of interactor (log2)” value [10] was 5.6, the “PRISMA enrichment of interactor (log2)” value [11] was 5.6 and the “PRISMA enrichment of interactor (log2)” value [12] was 5.08. For the same binder, the “PRISMA enrichment of interactor (log2)” value [13] was 4.41, the “PRISMA enrichment of interactor (log2)” value [14] was 6.31 and the “PRISMA enrichment of interactor (log2)” value [15] was 4.76. The “PRISMA enrichment of interactor (log2)” value [16] was 3.89, the “PRISMA enrichment of interactor (log2)” value [17] was 4.62 and the “PRISMA enrichment of interactor (log2)” value [18] was 5.24. For the same binder, the “PRISMA enrichment of interactor (log2)” value [19] was 5.08, the “PRISMA enrichment of interactor (log2)” value [20] was 5.9 and the “PRISMA enrichment of interactor (log2)” value [21] was 4.18. The “PRISMA enrichment of interactor (log2)” value [22] was 5.4, the “PRISMA enrichment of interactor (log2)” value [23] was 6.86 and the “PRISMA enrichment of interactor (log2)” value [24] was 4.54. For the same binder, the “PRISMA enrichment of interactor (log2)” value [25] was 5.15, the “PRISMA enrichment of interactor (log2)” value [26] was 4.75 and the “PRISMA enrichment of interactor (log2)” value [27] was 4.59. The “PRISMA enrichment of interactor (log2)” value [28] was 4.64, the “PRISMA enrichment of interactor (log2)” value [29] was 5.55 and the “PRISMA enrichment of interactor (log2)” value [30] was 4.52. The “PRISMA enrichment of interactor (log2)” value [31] was 4.06.

For MYRFRSQLFTGISAA [IFRD1], the “PRISMA enrichment of interactor (log2)” value [32] was 7.77, the “PRISMA enrichment of interactor (log2)” value [33] was 4.87 and the “PRISMA enrichment of interactor (log2)” value [34] was 8.72. The “PRISMA enrichment of interactor (log2)” value [35] was 5.47, the “PRISMA enrichment of interactor (log2)” value [36] was 4.41 and the “PRISMA enrichment of interactor (log2)” value [37] was 5.62. For the same binder, the “PRISMA enrichment of interactor (log2)” value [38] was 8.94, the “PRISMA enrichment of interactor (log2)” value [39] was 5 and the “PRISMA enrichment of interactor (log2)” value [40] was 4.32. For the same binder, the “PRISMA enrichment of interactor (log2)” value [41] was 5.34, the “PRISMA enrichment of interactor (log2)” value [42] was 8.32 and the “PRISMA enrichment of interactor (log2)” value [43] was 3.85. For the same binder, the “PRISMA enrichment of interactor (log2)” value [44] was 7.32 and the “PRISMA enrichment of interactor (log2)” value [45] was 4.22.

For TGLNTILHFRKRTRS [LINC01560], the “PRISMA enrichment of interactor (log2)” value [32] was 7.52, the “PRISMA enrichment of interactor (log2)” value [46] was 4.2 and the “PRISMA enrichment of interactor (log2)” value [47] was 5.87. For the same binder, the “PRISMA enrichment of interactor (log2)” value [48] was 4.39, the “PRISMA enrichment of interactor (log2)” value [49] was 4.65 and the “PRISMA enrichment of interactor (log2)” value [50] was 4.18. For the same binder, the “PRISMA enrichment of interactor (log2)” value [51] was 4.43, the “PRISMA enrichment of interactor (log2)” value [52] was 4.13 and the “PRISMA enrichment of interactor (log2)” value [53] was 4.32. For the same binder, the “PRISMA enrichment of interactor (log2)” value [54] was 5.81, the “PRISMA enrichment of interactor (log2)” value [55] was 5.97 and the “PRISMA enrichment of interactor (log2)” value [56] was 5.71.
